Data set [1] has as its system isolated PDZ domains (SNX27, TAX1BP3, SCRIB PDZ_1, SCRIB PDZ_2, DLG1 PDZ_1, DLG1 PDZ_2). Nature of the data set: nHU-MS with six isolated PDZ domain baits / summary of nHU-MS experiments. It is filed as binding, human. Particulars: Jurkat extract.
In data set [2] the test system is SNX27_PDZ. Kind of data set: nHU-WB at various incubation times, SNX27_PDZ bait, Jurkat lysates. It is filed as binding. The settings on record: 15, 30, 120 and 240 min; 10 μM bait.
The test system of another data set is HA-tagged SNX27. Nature of the data set: Colocalization (immunostaining) in U2OS cells expressing HA-tagged SNX27 or SNX27_ΔPDZ. It is filed as cell-based. Particulars: SNX27 vs SNX27_ΔPDZ, confocal, single-cell PCC, n > 20.
In the next data set the test system is full-length SNX27. Nature of the data set: nHU-WB titration, full-length SNX27 bait, total Jurkat extracts. It is filed as binding. How it is done: The empty His6-AviTag-MBP-TEV vector was used to produce biotinylated MBP for control experiments. Proteins were coexpressed with BirA biotin ligase (PET21a-BirA, Addgene, no. 20857) in Escherichia coli BL21(DE3) cells. At isopropyl-β-D-thiogalactopyranoside (IPTG) induction (1 mM IPTG at 18°C overnight), 50 μM biotin was added to the media. […] Lysates were frozen at -20°C before further purification steps. Lysates were sonicated and centrifuged for clarification. Expressed proteins were captured on in-house prepacked Ni-IDA (Protino Ni-IDA Resin, Macherey-Nagel, Duren, Germany) columns and were washed with at least 10 column volumes of cold wash buffer [50 mM tris (pH 7.5), 150 mM NaCl, and 2 mM β-mercaptoethanol] before elution with 250 mM imidazole. The Ni elution was collected directly on a preequilibrated amylose column (amylose high flow resin, New England Biolabs, Ipswich, MA). […] The concentration of proteins was determined by their ultraviolet absorption at 280 nm before aliquots were snap-frozen in liquid nitrogen and stored at -80°C. […] To saturate streptavidin resin with biotinylated proteins, 50 μl of streptavidin resin (Streptavidin Sepharose High Performance, Cytiva) was mixed with biotinylated MBP or MBP-PDZ at 40 to 50 μM concentration in 20× resin volume for 60 min. […] Last, resins were washed two times (10 resin volume, holdup buffer). […]

Data set [3] relates to SNX27_PDZ. Kind of data set: AP-MS control pull-down on leftover resin, SNX27_PDZ bait, total SH-SY5Y extracts. It is filed as binding, human. Particulars: threshold 1 σ. On the procedure:
Leftover beads from nHU-MS experiments were washed three times immediately after the separation of the supernatant [10 resin volume in buffer containing 50 mM tris (pH 8.5), 150 mM NaCl, 1% Triton X-100, 10× cOmplete EDTA-free protease inhibitor cocktail, 2 mM EDTA, and 1 mM TCEP]. Then, the beads were washed two times [10 resin volume buffer containing 50 mM tris (pH 8.5), 150 mM NaCl, and 1 mM TCEP]. Last, captured protein was eluted from the resin in two steps, and the eluted fractions were pooled. For each elution, the beads were incubated for 30 min with three resin volume buffer containing 20 mM tris (pH 8.5), 100 mM NaCl, 500 μM TCEP, and 8 M urea. Between each step, the beads were separated by mild centrifugation, and the supernatant was removed by gentle pipetting.
The nHU samples were precipitated with trichloroacetic acid (TCA) 20% overnight at 4°C and centrifuged at 14,000 rpm for 10 min at 4°C. The protein pellets were washed twice with 1 ml of cold acetone and air-dried. […]
Samples were analyzed using an Ultimate 3000 nano-RSLC coupled in line via a nano-electrospray ionization source, with an LTQ-Orbitrap ELITE mass spectrometer (Thermo Fisher Scientific, San Jose, CA) or with the Orbitrap Exploris 480 mass spectrometer (Thermo Fisher Scientific, Bremen, Germany) equipped with a high field asymmetric ion mobility spectrometry (FAIMS) module. […]

Entries after “also recorded” stand apart in the source; their conditions may differ. Some entries repeat one wording, which the source may state once for all of them.

B1: full-length SLC1A5: neutral amino acid transporter B(0), endogenous full-length prey (protein, UniProt Q15758 1-541, looked up)
chain: MVADPPRDSKGLAAAEPTANGGLALASIEDQGAAAGGYCGSRDQVRRCLRANLLVLLTVVAVVAGVALGLGVSGAGGALALGPERLSAFVFPGELLLRLLRMIILPLVVCSLIGGAASLDPGALGRLGAWALLFFLVTTLLASALGVGLALALQPGAASAAINASVGAAGSAENAPSKEVLDSFLDLARNIFPSNLVSAAFRSYSTTYEERNITGTRVKVPVGQEVEGMNILGLVVFAIVFGVALRKLGPEGELLIRFFNSFNEATMVLVSWIMWYAPVGIMFLVAGKIVEMEDVGLLFARLGKYILCCLLGHAIHGLLVLPLIYFLFTRKNPYRFLWGIVTPLATAFGTSSSSATLPLMMKCVEENNGVAKHISRFILPIGATVNMDGAALFQCVAAVFIAQLSQQSLDFVKIITILVTATASSVGAAGIPAGGVLTLAIILEAVNLPVDHISLILAVDWLVDRSCTVLNVEGDALGAGLLQNYVDRTESRSTEPELIQVKSELPLDPLPVPTEEGNPLLKHYRGPAGDATVASEKESVM
modifications: full-length
notes: neutral amino acid transporter B(0), endogenous full-length prey
As to B1, the “interaction with isolated PDZ domains” value in data set [1] was “detectable interaction with only SNX27_PDZ”. Moreover, in the data set with SNX27_PDZ [2], the “effect of prolonged incubation time on BI” value is “did not observe significant change”. Moreover, the “colocalization with SNX27” value in the data set with HA-tagged SNX27 was “statistically significantly stronger colocalization with SNX27 than with SNX27_ΔPDZ”. The binding mechanism result in the data set with full-length SNX27 (titration) was “simple binding mechanism”.

B2: full-length SLC16A1: monocarboxylate transporter 1, endogenous full-length prey (protein, UniProt P53985 1-500, looked up)
chain: MPPAVGGPVGYTPPDGGWGWAVVIGAFISIGFSYAFPKSITVFFKEIEGIFHATTSEVSWISSIMLAVMYGGGPISSILVNKYGSRIVMIVGGCLSGCGLIAASFCNTVQQLYVCIGVIGGLGLAFNLNPALTMIGKYFYKRRPLANGLAMAGSPVFLCTLAPLNQVFFGIFGWRGSFLILGGLLLNCCVAGALMRPIGPKPTKAGKDKSKASLEKAGKSGVKKDLHDANTDLIGRHPKQEKRSVFQTINQFLDLTLFTHRGFLLYLSGNVIMFFGLFAPLVFLSSYGKSQHYSSEKSAFLLSILAFVDMVARPSMGLVANTKPIRPRIQYFFAASVVANGVCHMLAPLSTTYVGFCVYAGFFGFAFGWLSSVLFETLMDLVGPQRFSSAVGLVTIVECCPVLLGPPLLGRLNDMYGDYKYTYWACGVVLIISGIYLFIGMGINYRLLAKEQKANEQKKESKEEETSIDVAGKPNEVTKAAESPDQKDTDGGPKEEESPV
modifications: full-length
notes: monocarboxylate transporter 1, endogenous full-length prey
As to B2, the “interaction with isolated PDZ domains” value in data set [1] is “detectable interaction with only SNX27_PDZ”. In addition, the “effect of prolonged incubation time on BI” value in the data set with SNX27_PDZ [2] is “only a small change; also recorded: did not observe significant change”. In the data set with HA-tagged SNX27, the “colocalization with SNX27” value was “statistically significantly stronger colocalization with SNX27 than with SNX27_ΔPDZ”. In addition, the affinity ranking result in the data set on full-length SNX27 (full-length SNX27) is on record as “stronger than with SLC1A5”.

B3: CNBP: Cellular nucleic acid-binding protein (protein, UniProt P62633 2-177, looked up)
CCHC-type zinc finger nucleic …: SSNECFKCGRSGHWARECPTGGGRGRGMRSRGRGGFTSDRGFQFVSSSLPDICYRCGESGHLAKDCDLQEDACYNCGRGGHIAKDCKEPKREREQCCYNCGKPGHLARDCDHADEQKCYSCGEFGHIQKDCTKVKCYRCGETGHVAINCSKTSEVNCYRCGESGHLARECTIEATA
As for B3, the BINDER_AP entry in the data set with SNX27_PDZ [3] was “DOES NOT BIND”.

(Values after PMC9770967, “Native holdup (nHU) to measure binding affinities from cell extracts” (Science Advances, 2022).)
